This assay addresses BK polyomavirus major capsid protein VP1 (BK polyomavirus, Dunlop strain) (UniProt P03088). Put plainly: cryo-EM structure; purified native BKV virions (0.25 mg/ml) adsorbed on carbon-coated lacey grids in buffer A without Triton X-100; icosahedral reconstructions: unliganded 3.8 A, with 20 mM GT1b oligosaccharide 3.4 A, with heparin 10 mg/ml 3.6 A, with 5 mM DTT (reduced) 6.5 A; both purified.

Chains of the proteins cited; added tags and fusions are not shown.
UniProt P03088: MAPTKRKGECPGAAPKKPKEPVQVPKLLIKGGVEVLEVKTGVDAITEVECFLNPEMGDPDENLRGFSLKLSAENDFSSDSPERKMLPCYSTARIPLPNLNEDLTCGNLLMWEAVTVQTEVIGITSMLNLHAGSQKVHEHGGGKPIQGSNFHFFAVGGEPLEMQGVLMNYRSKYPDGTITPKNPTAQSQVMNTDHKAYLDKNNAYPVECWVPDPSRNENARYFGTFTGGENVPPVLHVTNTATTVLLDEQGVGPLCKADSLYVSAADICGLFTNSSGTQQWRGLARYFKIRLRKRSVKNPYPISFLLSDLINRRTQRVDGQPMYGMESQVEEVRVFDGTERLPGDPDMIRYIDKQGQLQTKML

These are yes or no findings as the source states them, for the method shown. Some results given as binding are weak or reduced against the parent protein; the word gives no strength.

Take “BK polyomavirus minor capsid protein VP2 (or its N-terminally truncated variant VP3) (from UniProt P03094 1-351)”: the binding entry was “binds”.

These data come from paper PMC5992339, “The Structure of an Infectious Human Polyomavirus and Its Interactions with Cellular Receptors” (Structure(London, England:1993), 2018).
